Measurements published in the supplement of paper PMC6414424.
Where a name gives a salt, the structure may show the parent alone. ± gives the standard deviation of the averaged measurements. Some of the results follow.

Each compound was assayed on APPdp1-6 iPSC-derived neurons (assay: pThr231Tau/total Tau ratio Z-score vs DMSO vehicle wells; higher = more pThr231Tau relative to total Tau). Conditions: 5 µM; treatment time 5 days.

SMILES	pThr231Tau/total Tau ratio Z-score
CC1(C)S[C@@H]2[C@H](NC(=O)[C@H](N)c3ccc(O)cc3)C(=O)N2[C@H]1C(=O)O [Prestw-357]	0.641 ± 0.57
COc1cccc2c1C(=O)c1c(O)c3c(c(O)c1C2=O)C[C@@](O)(C(=O)CO)C[C@@H]3O[C@H]1C[C@H](N)[C@H](O)[C@H](C)O1 [Prestw-438]	-0.134 ± 3.8
CCC(=O)O[C@@H](O[P@](=O)(CCCCc1ccccc1)CC(=O)N1C[C@H](C2CCCCC2)C[C@H]1C(=O)O)C(C)C [Prestw-1423]	-0.115 ± 0.37
CCCCC(=O)O[C@H]1CC[C@H]2[C@@H]3CCc4cc(O)ccc4[C@H]3CC[C@]12C [Prestw-1473]	0.251 ± 0.29
COC(=O)Nc1nc2ccc(C(=O)c3ccccc3)cc2[nH]1 [Prestw-217]	-3.69 ± 1.3
N=C(N)c1ccc(OCCCCCOc2ccc(C(=N)N)cc2)cc1 [Prestw-553]	-0.497 ± 0.61
Fc1ccc(C(c2ccc(F)cc2)N2CCN(C/C=C/c3ccccc3)CC2)cc1 [Prestw-312]	-0.223 ± 0.49
CN1CCc2c(c3ccccc3n2Cc2ccccc2)C1	0.407 ± 0.078
CN1CCc2c(c3ccccc3n2Cc2ccccc2)C1 [Prestw-455]	-0.335 ± 0.036
COc1ccc(CCN(C)CCCC(C#N)(c2ccc(OC)c(OC)c2)C(C)C)cc1OC (centres undefined) [Prestw-141]	-0.648 ± 0.22
C[N+]1(CCCCC[N+]2(C)CCCC2)CCCC1 [Prestw-188]	0.77 ± 0.5
CO/N=C(\C(=O)N[C@@H]1C(=O)N2C(C(=O)OCOC(=O)C(C)(C)C)=C(/C=C\c3scnc3C)CS[C@H]12)c1csc(N)n1 [CEFDITORIN PIVOXIL, antibacterial]	0.88 ± 1.1
Oc1ncnc2[nH]ncc12 [Prestw-1213]	-1.16 ± 2
O=C(O)c1cc(N=Nc2ccc(S(=O)(=O)Nc3ccccn3)cc2)ccc1O [Prestw-520]	0.431 ± 0.25
CNCCCC1c2ccccc2C=Cc2ccccc21 [Prestw-930]	0.0238 ± 0.22
CNCCCC1c2ccccc2C=Cc2ccccc21 [Prestw-254]	-0.357 ± 0.48
CCCCCCC[N+](CC)(CC)CCCCc1ccc(Cl)cc1 [Prestw-319]	-4.07 ± 0.33
C[C@]12CCC(=O)C=C1CC[C@@H]1[C@@H]2[C@@H](O)C[C@@]2(C)[C@H]1CC[C@]2(O)C(=O)CO [Prestw-447]	0.501 ± 1.2
C[C@H]1O[C@@H](O[C@H]2[C@@H](O)C[C@H](O[C@H]3[C@@H](O)C[C@H](O[C@H]4CC[C@@]5(C)[C@H](CC[C@@H]6[C@@H]5C[C@@H](O)[C@]5(C)[C@@H](C7=CC(=O)OC7)CC[C@]65O)C4)O[C@@H]3C)O[C@@H]2C)C[C@H](O)[C@@H]1O [Prestw-437]	-3.33 ± 0.89
CC(C(=O)O)c1ccc(-c2ccccc2)c(F)c1 (centres undefined) [Prestw-917]	-1.01 ± 0.24

SMILES	pThr231Tau/total Tau ratio Z-score
O=C(OCC(O)CO)c1ccccc1Nc1ccnc2cc(Cl)ccc12 (centres undefined) [Prestw-293]	0.817 ± 1.4
CN(C)C(=O)C(CCN1CCC(O)(c2ccc(Cl)cc2)CC1)(c1ccccc1)c1ccccc1 [Prestw-144]	-0.344 ± 2.1
Cc1cccc(C)c1NC(=O)C(C)N (centres undefined) [Prestw-1027]	-1.14 ± 0.8
CCCCc1cc2ccccc2c(OCCN(C)C)n1 [Prestw-630]	-0.406 ± 0.53
CC(C(=O)O)c1ccc2c(c1)[nH]c1ccc(Cl)cc12 (centres undefined) [Prestw-1261]	0.196 ± 0.059
Oc1c(Cl)cc(Cl)c(Cl)c1Cc1c(O)c(Cl)cc(Cl)c1Cl [Prestw-1472]	-4.3 ± 0.54
COc1ccc(/C=C/C(=O)Nc2ccccc2C(=O)O)cc1OC [Prestw-1198]	-0.649 ± 0.35
CCOC(=O)C1=C(COCCN)NC(C)=C(C(=O)OC)C1c1ccccc1Cl (centres undefined) [Prestw-1219]	0.173 ± 0.19
CC(C)CCCCC(=O)N[C@@H](CCN)C(=O)N[C@@H](CN[C@@H](CCN)C(=O)N[C@H]1CCNC(=O)[C@H]([C@@H](C)O)NC(=O)[C@H](CCN)NC(=O)[C@H](CCN)NC(=O)[C@H](CC(C)C)NC(=O)[C@@H](CC(C)C)NC(=O)[C@H](CCN)NC1=O)[C@@H](C)O.CCC(C)CCCCC(=O)N[C@@H](CCN)C(=O)N[C@@H](CN[C@@H](CCN)C(=O)N[C@H]1CCNC(=O)[C@H]([C@@H](C)O)NC(=O)[C@H](CCN)NC(=O)[C@H](CCN)NC(=O)[C@H](CC(C)C)NC(=O)[C@@H](CC(C)C)NC(=O)[C@H](CCN)NC1=O)[C@@H](C)O (some centres undefined) [COLISTIN SULFATE, antibacterial]	1.77 ± 0.34
CC(C)CCCCC(=O)N[C@@H](CCN)C(=O)N[C@@H](CN[C@@H](CCN)C(=O)N[C@H]1CCNC(=O)[C@H]([C@@H](C)O)NC(=O)[C@H](CCN)NC(=O)[C@H](CCN)NC(=O)[C@H](CC(C)C)NC(=O)[C@@H](CC(C)C)NC(=O)[C@H](CCN)NC1=O)[C@@H](C)O.CCC(C)CCCCC(=O)N[C@@H](CCN)C(=O)N[C@@H](CN[C@@H](CCN)C(=O)N[C@H]1CCNC(=O)[C@H]([C@@H](C)O)NC(=O)[C@H](CCN)NC(=O)[C@H](CCN)NC(=O)[C@H](CC(C)C)NC(=O)[C@@H](CC(C)C)NC(=O)[C@H](CCN)NC1=O)[C@@H](C)O (some centres undefined) [Prestw-486]	0.77 ± 0.38
CN1[C@@H]2CC[C@H]1C[C@@H](OC(=O)c1c[nH]c3ccccc13)C2 [Prestw-461]	-0.53 ± 0.97
COc1ccccc1OCC(O)CO (centres undefined) [Prestw-776]	0.0745 ± 0.53
NC[C@@H]1O[C@H](O[C@H]2[C@@H](O)[C@H](O[C@@H]3[C@@H](O)[C@H](N)C[C@H](N)[C@H]3O[C@H]3O[C@H](CO)[C@@H](O)[C@H](O)[C@H]3N)O[C@@H]2CO)[C@H](N)[C@@H](O)[C@@H]1O [Prestw-867]	0.109 ± 0.19
CC[C@]1(O)C[C@H]2CN(CCc3c([nH]c4ccccc34)[C@@](C(=O)OC)(c3cc4c(cc3OC)N(C=O)[C@H]3[C@@](O)(C(=O)OC)[C@H](OC(C)=O)[C@]5(CC)C=CCN6CC[C@]43[C@@H]65)C2)C1 [VINCRISTINE SULFATE, antineoplastic]	-5.1 ± 1.1
CC(=O)[C@H]1CC[C@H]2[C@@H]3C=CC4=CC(=O)CC[C@@]4(C)[C@@H]3CC[C@]12C [Prestw-671]	0.502 ± 0.65
Cc1cc(=O)[nH]c(=S)[nH]1 [METHYLTHIOURACIL    Therap cat:  Antithyroid agent]	0.11 ± 0.22
CN(C)CCOC(C)(c1ccccc1)c1ccccn1 (centres undefined) [Prestw-27]	1.51 ± 2.1
CC(=O)c1ccc2c(c1)N(CCCN(C)C)c1ccccc1S2 [Prestw-576]	0.828 ± 2.7
CC(C)(C#N)c1cc(Cn2cncn2)cc(C(C)(C)C#N)c1 [Prestw-1222]	1.44 ± 2
Oc1c(I)cc(Cl)c2cccnc12 [Prestw-886]	-0.387 ± 0.016

SMILES	pThr231Tau/total Tau ratio Z-score
Nc1ccn([C@H]2CC[C@@H](CO)O2)c(=O)n1 [Prestw-1037]	-0.0393 ± 0.056
CN(C(=O)C(Cl)Cl)c1ccc(OC(=O)c2ccco2)cc1 [Prestw-903]	-0.358 ± 0.28
COc1ccc(OC)c(C(O)CNC(=O)CN)c1 (centres undefined) [Prestw-191]	-0.591 ± 0.47
CN(C)CCN1C(=O)c2ccccc2N(C)c2ccccc21 [Prestw-1393]	-0.901 ± 0.44
CN1CCN(CCCN2c3ccccc3Sc3ccc(C(F)(F)F)cc32)CC1 [Prestw-313]	-1.59 ± 0.18
CC[C@H](C)[C@H](N)C1=N[C@H](C(=O)N[C@@H](CC(C)C)C(=O)N[C@H](CCC(=O)O)C(=O)N[C@H](C(=O)N[C@H]2CCCCNC(=O)[C@H](CC(N)=O)NC(=O)[C@@H](CC(=O)O)NC(=O)[C@H](Cc3cnc[nH]3)NC(=O)[C@@H](Cc3ccccc3)NC(=O)[C@H]([C@@H](C)CC)NC(=O)[C@@H](CCCN)NC2=O)[C@@H](C)CC)CS1	0.627 ± 1.2
CC[C@H](C)[C@H](N)C1=N[C@H](C(=O)N[C@@H](CC(C)C)C(=O)N[C@H](CCC(=O)O)C(=O)N[C@H](C(=O)N[C@H]2CCCCNC(=O)[C@H](CC(N)=O)NC(=O)[C@@H](CC(=O)O)NC(=O)[C@H](Cc3cnc[nH]3)NC(=O)[C@@H](Cc3ccccc3)NC(=O)[C@H]([C@@H](C)CC)NC(=O)[C@@H](CCCN)NC2=O)[C@@H](C)CC)CS1 [Prestw-919]	0.0119 ± 0.74
CC(=O)NS(=O)(=O)c1ccc(NC(=O)c2ccccc2C(=O)O)cc1	1.66 ± 1.9
COc1ccc2c(c1OC)C(=O)O[C@@H]2[C@H]1c2c(cc3c(c2OC)OCO3)CCN1C [NOSCAPINE HYDROCHLORIDE, antitussive]	0.607 ± 1.6
CC(=O)NCCCS(=O)(=O)O [Prestw-1502]	1.57 ± 0.18
CCOC(=O)O[C@]1(C(=O)COC(=O)CC)CC[C@H]2[C@@H]3CCC4=CC(=O)C=C[C@]4(C)[C@H]3[C@@H](O)C[C@@]21C [Prestw-1044]	1.81 ± 1.4
CC(C)(C)NCC(O)COc1cccc2c1CCC(=O)N2 (centres undefined) [Prestw-446]	-0.939 ± 0.085
C[C@@H]1NC(=O)[C@@H](N)CNC(=O)[C@H](C2CCN=C(N)N2)NC(=O)/C(=C/NC(N)=O)NC(=O)[C@H](CNC(=O)CC(N)CCCN)NC1=O.NCCCC(N)CC(=O)NC[C@@H]1NC(=O)[C@H](CO)NC(=O)[C@@H](N)CNC(=O)[C@H](C2CCN=C(N)N2)NC(=O)/C(=C/NC(N)=O)NC1=O (some centres undefined)	0.835 ± 1
OC[C@H]1O[C@H](O[C@]2(CCl)O[C@H](CCl)[C@@H](O)[C@@H]2O)[C@H](O)[C@@H](O)[C@H]1Cl [SUCRALOSE, sweetener]	0.761 ± 1.2
COc1ccc2c(c1)c(CC(=O)O)c(C)n2C(=O)c1ccc(Cl)cc1 [Prestw-272]	-0.361 ± 0.84
Nc1nc2ccc(OC(F)(F)F)cc2s1 [Prestw-167]	-0.843 ± 0.18
C(=C\c1ccccc1)/CN1CCN(C(c2ccccc2)c2ccccc2)CC1 [Prestw-278]	-1.08 ± 0.75
O=C(C1CCCCC1)N1CC(=O)N2CCc3ccccc3C2C1 (centres undefined) [Prestw-260]	0.0753 ± 1.3
Cc1ccc(NC(=O)c2ccc(CN3CCN(C)CC3)cc2)cc1Nc1nccc(-c2cccnc2)n1 [Prestw-1290]	0.361 ± 0.24

Ten successive records out of the list so far:
SMILES	pThr231Tau/total Tau ratio Z-score
CN(C(=O)C(Cl)Cl)c1ccc(OC(=O)c2ccco2)cc1 [Prestw-903]	-0.358 ± 0.28
COc1ccc(OC)c(C(O)CNC(=O)CN)c1 (centres undefined) [Prestw-191]	-0.591 ± 0.47
CN(C)CCN1C(=O)c2ccccc2N(C)c2ccccc21 [Prestw-1393]	-0.901 ± 0.44
CN1CCN(CCCN2c3ccccc3Sc3ccc(C(F)(F)F)cc32)CC1 [Prestw-313]	-1.59 ± 0.18
CC[C@H](C)[C@H](N)C1=N[C@H](C(=O)N[C@@H](CC(C)C)C(=O)N[C@H](CCC(=O)O)C(=O)N[C@H](C(=O)N[C@H]2CCCCNC(=O)[C@H](CC(N)=O)NC(=O)[C@@H](CC(=O)O)NC(=O)[C@H](Cc3cnc[nH]3)NC(=O)[C@@H](Cc3ccccc3)NC(=O)[C@H]([C@@H](C)CC)NC(=O)[C@@H](CCCN)NC2=O)[C@@H](C)CC)CS1	0.627 ± 1.2
CC[C@H](C)[C@H](N)C1=N[C@H](C(=O)N[C@@H](CC(C)C)C(=O)N[C@H](CCC(=O)O)C(=O)N[C@H](C(=O)N[C@H]2CCCCNC(=O)[C@H](CC(N)=O)NC(=O)[C@@H](CC(=O)O)NC(=O)[C@H](Cc3cnc[nH]3)NC(=O)[C@@H](Cc3ccccc3)NC(=O)[C@H]([C@@H](C)CC)NC(=O)[C@@H](CCCN)NC2=O)[C@@H](C)CC)CS1 [Prestw-919]	0.0119 ± 0.74
CC(=O)NS(=O)(=O)c1ccc(NC(=O)c2ccccc2C(=O)O)cc1	1.66 ± 1.9
COc1ccc2c(c1OC)C(=O)O[C@@H]2[C@H]1c2c(cc3c(c2OC)OCO3)CCN1C [NOSCAPINE HYDROCHLORIDE, antitussive]	0.607 ± 1.6
CC(=O)NCCCS(=O)(=O)O [Prestw-1502]	1.57 ± 0.18
CCOC(=O)O[C@]1(C(=O)COC(=O)CC)CC[C@H]2[C@@H]3CCC4=CC(=O)C=C[C@]4(C)[C@H]3[C@@H](O)C[C@@]21C [Prestw-1044]	1.81 ± 1.4
